# According to the supplement of paper PMC9135407:
# “And” between values parts separate entries of the source, which are not always exact repeats. Identical values can stand only once. Counter-ions that a name gives are not always drawn. ± gives the standard deviation of the averaged measurements. Some of the results follow. Baselines shift from plate to plate; read single values as rough.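 Primary human stellate myofibroblasts activated in culture; inactivation shown by regained lipid droplets. Readout: fraction of Hoechst-counted cells exceeding a per-plate Bodipy threshold, duplicate wells, each plate with DMSO negative and nortriptyline positive controls. Hits: control-normalized score beyond the plate's top-tenth-percentile nortriptyline wells, or among its three best wells. Final well concentrations unstated.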
# Test system: primary human hepatic stellate cells (donor 1)
# Assay: percent Bodipy-positive cells; higher = more lipid droplet accumulation
# Settings: 48 h
# [1] = library stock concentration: 5.4 mM
# [2] = library stock concentration: 10 mM
# [3] = library stock concentration: 1 mM
# [4] = library stock concentration: 3.33 mM
# [5] = library stock concentration: 80 uM
# [6] = library stock concentration: 400 uM
# [7] = library stock concentration: 2 mM
structure (smiles),measurement,setting,value
O=C(O)C1(C(=O)O)CCC1.[NH2-].[NH2-].[Pt+2] [Carboplatin],percent Bodipy-positive cells,[1],18.3 ± 3.6%
same,percent Bodipy-positive cells,library stock concentration: 5.9 mM,6.64 ± 0.87%
CCOc1cc2ncc(C#N)c(Nc3ccc(F)c(Cl)c3)c2cc1NC(=O)C=CCN(C)C,percent Bodipy-positive cells,[2],97.3 ± 3.2%
CNCCC(Oc1ccc(C(F)(F)F)cc1)c1ccccc1.Cl (centres undefined) [Fluoxetine hydrochloride],percent Bodipy-positive cells,[2],96.3 ± 3%
COC(=O)C(N)Cc1ccc(Cl)cc1 (racemic) [DL-p-Chlorophenylalanine methyl ester hydrochloride],percent Bodipy-positive cells,[2],38 ± 10%
NC(CCC(=O)NC(CSN=O)C(=O)NCC(=O)O)C(=O)O [S-Nitroso-L-glutathione],percent Bodipy-positive cells,[3],5.77 ± 1.1%
CC(=O)Nc1cccc(O)c1 [Metacetamol],percent Bodipy-positive cells,[2],41.6 ± 10%
Cc1cnc(C(=O)O)c[n+]1[O-] [Acipimox],percent Bodipy-positive cells,[4],4.32 ± 1.2%
same,percent Bodipy-positive cells,[2],7.86 ± 3.5%
same,percent Bodipy-positive cells,library stock concentration: 13 mM,7.86 ± 1.2%
O=C(c1cncc(Br)c1)N1CCC(N2CCCC2)CC1,percent Bodipy-positive cells,[5],31 ± 1.4%
same,percent Bodipy-positive cells,[6],30.5 ± 3.4%
same,percent Bodipy-positive cells,[7],26.9 ± 11%
same,percent Bodipy-positive cells,[4],22.5 ± 6.3%
same,percent Bodipy-positive cells,[2],31.2% and 28.1%
O=C(Nc1ccc([N+](=O)[O-])cc1O)Nc1ccccc1Br,percent Bodipy-positive cells,[3],23.6 ± 3.3%
same,percent Bodipy-positive cells,[2],27.51 ± 0.1%
O=c1c(O)c(-c2ccc(O)c(O)c2)oc2cc(O)cc(O)c12 [Quercetine dihydrate],percent Bodipy-positive cells,,51.9 ± 25%
O=c1c(O)c(-c2ccc(O)c(O)c2)oc2cc(O)cc(O)c12 [Quercetin dihydrate],percent Bodipy-positive cells,[2],23.8 ± 5.7%
O=c1c(O)c(-c2ccc(O)c(O)c2)oc2cc(O)cc(O)c12 [Quercetin],percent Bodipy-positive cells,[3],17.6 ± 7.6%
same,percent Bodipy-positive cells,[4],9.71 ± 0.63%
same,percent Bodipy-positive cells,[2],35.3% and 21% and 13.1%
O=c1c(O)c(-c2ccc(O)c(O)c2)oc2cc(O)cc(O)c12 [Quercetin Dihydrate],percent Bodipy-positive cells,[4],13.8 ± 5.5%
same,percent Bodipy-positive cells,[2],15.3 ± 1.7%
c1ccc(-c2n[nH]c3c2oc2ccccc23)cc1,percent Bodipy-positive cells,[4],7.61 ± 1.2%
same,percent Bodipy-positive cells,[2],9.64 ± 5.6%
c1ccc2oc(C3=NCCN3)cc2c1 [2-BFI hydrochloride],percent Bodipy-positive cells,[2],9.22 ± 3.4%
CCc1oc2ccccc2c1C(=O)c1cc(Br)c(O)c(Br)c1,percent Bodipy-positive cells,[2],12.9 ± 3.4%
CCc1oc2ccccc2c1C(=O)c1cc(Br)c(O)c(Br)c1 [Benzbromarone],percent Bodipy-positive cells,,24.6 ± 3.9%
same,percent Bodipy-positive cells,[4],11 ± 0.41%
same,percent Bodipy-positive cells,library stock concentration: 4.7 mM,12.3 ± 11%
same,percent Bodipy-positive cells,[2],36.6 ± 13%
CC/C(=C(\c1ccccc1)c1ccc(OCCN(C)C)cc1)c1ccccc1 [Tamoxifen],percent Bodipy-positive cells,[2],98.4% and 99.4%
same,percent Bodipy-positive cells,library stock concentration: 13.5 mM,75.2 ± 5.2%
CC/C(=C(\c1ccccc1)c1ccc(OCCN(C)C)cc1)c1ccccc1 [Tamoxifen Citrate],percent Bodipy-positive cells,[4],57.5 ± 3%
same,percent Bodipy-positive cells,[2],93.9 ± 2.1%
CC/C(=C(\c1ccccc1)c1ccc(OCCN(C)C)cc1)c1ccccc1 [Tamoxifen citrate],percent Bodipy-positive cells,,52.6 ± 2.3%
same,percent Bodipy-positive cells,library stock concentration: 3.5 mM,80.9 ± 9.9%
same,percent Bodipy-positive cells,[1],39.2 ± 7.3%
CN[C@@H]1[C@H](O[C@H]2[C@H](O[C@H]3[C@H](O)[C@@H](O)[C@H](NC(=N)N)[C@@H](O)[C@@H]3NC(=N)N)O[C@@H](C)[C@]2(O)CO)O[C@@H](CO)[C@H](O)[C@H]1O [Dihydrostreptomycin sulfate],percent Bodipy-positive cells,,28.1 ± 6%
same,percent Bodipy-positive cells,library stock concentration: 2.9 mM,4.88 ± 0.75%
same,percent Bodipy-positive cells,[2],7.35 ± 2.4%
NCc1ccc(S(N)(=O)=O)cc1 [Mafenide hydrochloride],percent Bodipy-positive cells,,25.5 ± 3.8%
same,percent Bodipy-positive cells,library stock concentration: 9 mM,3.84 ± 0.99%
same,percent Bodipy-positive cells,[2],13.7 ± 2%
NCc1ccc(S(N)(=O)=O)cc1,percent Bodipy-positive cells,[2],39.8 ± 11%
Cc1c[nH]c(/C=C2\C(=O)Nc3ccccc32)c1CCC(=O)O,percent Bodipy-positive cells,[6],33.58 ± 0.16%
same,percent Bodipy-positive cells,[7],20.8 ± 3.6%
same,percent Bodipy-positive cells,[2],27.1 ± 5.3%
Cc1ccccc1N=Nc1ccc(NC(=O)c2ccnn2C)c(C)c1,percent Bodipy-positive cells,[2],9.37 ± 1.4%
CCN(CCCOc1ccc2c(Nc3cc(CC(=O)Nc4cccc(F)c4)[nH]n3)ncnc2c1)CCOP(=O)(O)O [Barasertib],percent Bodipy-positive cells,[5],11.6 ± 0.059%
same,percent Bodipy-positive cells,[6],8.38 ± 4.5%
same,percent Bodipy-positive cells,[7],19.7 ± 2.4%
same,percent Bodipy-positive cells,[2],37.4 ± 10%
CC(C)(C)NCC(O)c1cc(O)cc(O)c1 (centres undefined) [Terbutaline hemisulfate],percent Bodipy-positive cells,,35.7 ± 4.1%
same,percent Bodipy-positive cells,library stock concentration: 6.2 mM,14.6 ± 1.5%
same,percent Bodipy-positive cells,[2],17.1% and 12.9%
CC(C)(C)NCC(O)c1cc(O)cc(O)c1 (centres undefined) [Terbutaline Sulfate],percent Bodipy-positive cells,[2],40.38 ± 0.12%
O=C(O)CCCCC1CCSS1 (racemic) [DL-.alpha.-Lipoic Acid],percent Bodipy-positive cells,[3],9.37 ± 2.5%
NS(=O)(=O)c1cc2c(cc1Cl)NC(CC1CCCC1)NS2(=O)=O (centres undefined) [Cyclopenthiazide],percent Bodipy-positive cells,,9.81 ± 1.4%
O=C(O)CCC/C=C\C[C@H]1C(=O)C[C@@H](O)[C@@H]1/C=C/[C@@H](O)COc1ccccc1 [16-phenoxy tetranor Prostaglandin E2],percent Bodipy-positive cells,[3],25.1 ± 1.4%
CC[N+](CC)(CC)CCOc1cccc(OCC[N+](CC)(CC)CC)c1OCC[N+](CC)(CC)CC [Gallamine triethiodide],percent Bodipy-positive cells,,21 ± 1.9%
same,percent Bodipy-positive cells,[2],35.8 ± 5.9%
CC[N+](CC)(CC)CCOc1cccc(OCC[N+](CC)(CC)CC)c1OCC[N+](CC)(CC)CC [Gallamine Triethiodide],percent Bodipy-positive cells,[4],9.35 ± 5.4%
same,percent Bodipy-positive cells,[2],21 ± 11%
CCOC(=O)[N-]c1c[n+](N2CCOCC2)no1 [Molsidomine],percent Bodipy-positive cells,,31.4 ± 2%
same,percent Bodipy-positive cells,[3],18.1 ± 8.1%
same,percent Bodipy-positive cells,library stock concentration: 8.3 mM,11.2% and 23.4%
same,percent Bodipy-positive cells,[2],18.5% and 21.8%
